Values from PubChem BioAssay AID1259254 (NCATS, 2017).
Screen: 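Finding genes that stop cells copying their DNA twice in one cycle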 (primary screen). Cells: human HCT116 colorectal cancer cells. Knock-down reagent: single siRNA against human genes. Time to read-out: 3 days. Read-out: 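Nuclei stained with Hoechst and imaged; cell-cycle phase assigned by DNA content; G2 share scaled per plate, non-targeting siRNA 0%, GMNN siRNA 100%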. Direction: G2 robust z-score and G2 cells, % of GMNN control: higher = more G2 cells, more excess DNA replication; raw share of cells in G2: higher = larger share of cells with G2 DNA content. Active means: 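Active siRNAs have a G2 robust z of 5 or more median absolute deviations over the median, which in these data means about 38% or higher of GMNN control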.
The deposit covers about 59,000 reagents; below is a part drawn at random. About 1,550 of all reagents (2.6%) count as active. 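G2 share is only a proxy for re-replication; each gene was hit by three separate siRNAs, and active genes were retested.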 Raw values vary from plate to plate and are shown uncorrected. Reagents against one gene are numbered here. Not given: the amount of reagent.

target,reagent,G2 robust z-score,"G2 cells, % of GMNN control",raw share of cells in G2 (%),outcome
UBXN1,1,-0.123,2.1,3.92,inactive
UBXN1,2,-0.305,0.819,4.17,inactive
UBXN1,3,-0.0788,2.41,5.46,inactive
PRR34,1,-0.397,0.171,4.59,inactive
PRR34,2,1.71,15,10.3,inactive
PRR34,3,1.53,13.7,7.52,inactive
PIP5KL1,1,0.218,4.5,6.83,inactive
PIP5KL1,2,3.97,30.9,15.2,inactive
PIP5KL1,3,-0.498,-0.536,3.51,inactive
A1BG,1,0.141,3.96,7.16,inactive
A1BG,2,1.7,15,9.57,inactive
A1BG,3,2.3,19.2,11,inactive
CREB3L4,1,0.58,7.05,9.32,inactive
CREB3L4,2,0.576,7.02,7.27,inactive
CREB3L4,3,1.82,15.8,11.3,inactive
CHML,1,-0.978,-3.91,3.47,inactive
CHML,2,1.37,12.6,8.7,inactive
CHML,3,1.71,15,9.41,inactive
IL20,1,-0.346,0.536,4.06,inactive
IL20,2,0.192,4.32,6.18,inactive
IL20,3,-0.0202,2.83,4.14,inactive
MVB12B,1,-0.936,-3.62,2.55,inactive
MVB12B,2,-0.439,-0.12,2.96,inactive
MVB12B,3,1.89,16.3,8.08,inactive
ADAM20,1,3.61,28.4,15.5,inactive
ADAM20,2,-0.34,0.576,5.11,inactive
ADAM20,3,-0.496,-0.525,3.71,inactive
DUSP21,1,0.0215,3.12,4.44,inactive
DUSP21,2,-0.6,-1.26,4.39,inactive
DUSP21,3,-0.67,-1.74,3.78,inactive

Copied from the list:
Entry for UBXN1 #3 in “G2 robust z-score”: -0.0788
Result for DUSP21 #2 under “outcome”: inactive
Result for CREB3L4 #1 in “G2 robust z-score”: 0.58
DUSP21 #3, outcome → inactive
Under “G2 cells, % of GMNN control”, PIP5KL1 #3 has -0.536
